The values below come from article PMC6790244.

Amino acid sequences for entries named in this document (tags omitted).
UniProt Q9UKL0: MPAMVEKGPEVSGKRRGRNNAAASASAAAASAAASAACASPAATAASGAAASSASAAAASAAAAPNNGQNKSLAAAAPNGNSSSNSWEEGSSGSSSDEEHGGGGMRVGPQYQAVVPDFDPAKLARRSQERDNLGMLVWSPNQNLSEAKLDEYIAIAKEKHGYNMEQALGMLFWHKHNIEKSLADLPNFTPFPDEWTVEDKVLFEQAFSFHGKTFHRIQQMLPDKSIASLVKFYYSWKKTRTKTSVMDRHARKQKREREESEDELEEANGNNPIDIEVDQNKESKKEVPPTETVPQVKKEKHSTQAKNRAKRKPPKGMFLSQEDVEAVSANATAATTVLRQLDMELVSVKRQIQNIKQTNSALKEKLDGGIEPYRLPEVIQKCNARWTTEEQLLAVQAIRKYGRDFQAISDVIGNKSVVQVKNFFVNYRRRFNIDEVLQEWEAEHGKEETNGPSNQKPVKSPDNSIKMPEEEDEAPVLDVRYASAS
UniProt Q5SVZ6: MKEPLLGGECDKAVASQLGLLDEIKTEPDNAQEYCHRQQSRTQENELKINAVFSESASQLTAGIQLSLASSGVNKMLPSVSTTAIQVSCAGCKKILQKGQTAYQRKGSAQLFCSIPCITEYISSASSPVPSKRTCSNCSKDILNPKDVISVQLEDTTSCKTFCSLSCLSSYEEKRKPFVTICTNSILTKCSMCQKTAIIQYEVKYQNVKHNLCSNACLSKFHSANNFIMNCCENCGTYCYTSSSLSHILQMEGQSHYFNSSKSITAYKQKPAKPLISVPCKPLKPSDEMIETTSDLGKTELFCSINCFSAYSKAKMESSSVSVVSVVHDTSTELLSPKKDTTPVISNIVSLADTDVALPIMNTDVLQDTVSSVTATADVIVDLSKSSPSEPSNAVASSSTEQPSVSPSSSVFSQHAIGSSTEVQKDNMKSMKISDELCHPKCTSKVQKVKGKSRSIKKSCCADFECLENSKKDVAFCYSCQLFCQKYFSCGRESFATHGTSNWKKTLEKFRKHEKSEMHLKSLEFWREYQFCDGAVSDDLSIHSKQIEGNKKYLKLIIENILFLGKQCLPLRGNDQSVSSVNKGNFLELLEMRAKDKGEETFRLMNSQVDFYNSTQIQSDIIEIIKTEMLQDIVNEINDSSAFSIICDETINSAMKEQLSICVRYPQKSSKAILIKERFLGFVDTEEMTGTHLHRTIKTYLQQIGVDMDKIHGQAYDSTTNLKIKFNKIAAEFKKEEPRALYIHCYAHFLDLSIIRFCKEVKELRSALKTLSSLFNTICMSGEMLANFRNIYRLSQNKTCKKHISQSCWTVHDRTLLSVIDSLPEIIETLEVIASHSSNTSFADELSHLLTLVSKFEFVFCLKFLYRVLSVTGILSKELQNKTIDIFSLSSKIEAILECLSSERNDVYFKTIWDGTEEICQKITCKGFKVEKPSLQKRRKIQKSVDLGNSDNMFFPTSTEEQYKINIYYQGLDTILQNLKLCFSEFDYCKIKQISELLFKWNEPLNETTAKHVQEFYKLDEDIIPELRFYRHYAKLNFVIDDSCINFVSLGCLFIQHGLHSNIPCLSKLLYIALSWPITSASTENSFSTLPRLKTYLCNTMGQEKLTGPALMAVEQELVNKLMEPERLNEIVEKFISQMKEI

For experiment [1], the target named is CoREST (human (endogenous in BGC823 and MKN-28)) (UniProt Q9UKL0). Kind of experiment: co-IP; whole-cell lysates of GC cells (BGC823, MKN-28); IP with antibodies against ZMYM1 or, reciprocally, against CtBP1/2, LSD1 or CoREST, then immunoblot; lysis buffer 50 mM Tris-HCl pH 7.5, 150 mM NaCl, 15 mM MgCl2, 5 mM EDTA, 0.1% NP-40; antibody 2 h and protein A/G agarose overnight at 4 °C. In general terms: A western blot detects proteins with antibodies after separation by electrophoresis.

For experiment [2], the target named is zinc finger MYM-type containing 1 (ZMYM1) (human (endogenous in BGC823 and MKN-28)) (UniProt Q5SVZ6). The description is as above.

Results are given in words; binding and its absence hold for the method and conditions named. In cells and extracts the contact can be indirect. Some binding calls cover weakened binding; strength is not graded here.

Take “zinc finger MYM-type containing 1 (ZMYM1) (from UniProt Q5SVZ6 1-1142)”: in experiment [1], the binding entry is listed as “binds”.

On to CoREST (from UniProt Q9UKL0 1-485), for which the binding result in experiment [2] is listed as “binds”.
